Results reported in article PMC12603276.

Protein sequences, listed by entry. Tags and fused reporters are not part of them.
UniProt P00558: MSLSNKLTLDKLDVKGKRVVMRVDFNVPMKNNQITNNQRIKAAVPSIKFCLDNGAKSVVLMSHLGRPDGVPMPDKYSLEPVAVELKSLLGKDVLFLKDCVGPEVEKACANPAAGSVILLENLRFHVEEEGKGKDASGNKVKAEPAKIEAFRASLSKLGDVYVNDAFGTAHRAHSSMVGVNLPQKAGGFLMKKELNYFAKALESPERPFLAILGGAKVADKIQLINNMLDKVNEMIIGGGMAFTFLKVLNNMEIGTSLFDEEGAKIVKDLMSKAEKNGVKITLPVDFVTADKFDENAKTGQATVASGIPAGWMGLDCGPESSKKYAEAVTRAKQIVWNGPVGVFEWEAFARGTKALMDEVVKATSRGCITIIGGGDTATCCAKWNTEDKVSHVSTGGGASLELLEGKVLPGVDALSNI

Biological target: phosphoglycerate kinase 1 (PGK1), endogenous (human (endogenous in PANC-1 and AsPC-1)) (UniProt P00558)
Test: affinity purification with mass spectrometry; PGK1 immunoprecipitated with an anti-PGK1 antibody from PANC-1 cells collected 30 min after IR; immunoprecipitates analysed by mass spectrometry

- binding: binds
B1: microrchidia CW-type zinc finger 2 (MORC2), endogenous (enzyme, UniProt Q9Y6X9 1-1032)
chain: MAFTNYSSLNRAQLTFEYLHTNSTTHEFLFGALAELVDNARDADATRIDIYAERREDLRGGFMLCFLDDGAGMDPSDAASVIQFGKSAKRTPESTQIGQYGNGLKSGSMRIGKDFILFTKKEDTMTCLFLSRTFHEEEGIDEVIVPLPTWNARTREPVTDNVEKFAIETELIYKYSPFRTEEEVMTQFMKIPGDSGTLVIIFNLKLMDNGEPELDIISNPRDIQMAETSPEGTKPERRSFRAYAAVLYIDPRMRIFIHGHKVQTKRLSCCLYKPRMYKYTSSRFKTRAEQEVKKAEHVARIAEEKAREAESKARTLEVRLGGDLTRDSRVMLRQVQNRAITLRREADVKKRIKEAKQRALKEPKELNFVFGVNIEHRDLDGMFIYNCSRLIKMYEKVGPQLEGGMACGGVVGVVDVPYLVLEPTHNKQDFADAKEYRHLLRAMGEHLAQYWKDIAIAQRGIIKFWDEFGYLSANWNQPPSSELRYKRRRAMEIPTTIQCDLCLKWRTLPFQLSSVEKDYPDTWVCSMNPDPEQDRCEASEQKQKVPLGTFRKDMKTQEEKQKQLTEKIRQQQEKLEALQKTTPIRSQADLKKLPLEVTTRPSTEEPVRRPQRPRSPPLPAVIRNAPSRPPSLPTPRPASQPRKAPVISSTPKLPALAAREEASTSRLLQPPEAPRKPANTLVKTASRPAPLVQQLSPSLLPNSKSPREVPSPKVIKTPVVKKTESPIKLSPATPSRKRSVAVSDEEEVEEEAERRKERCKRGRFVVKEEKKDSNELSDSAGEEDSADLKRAQKDKGLHVEVRVNREWYTGRVTAVEVGKHVVRWKVKFDYVPTDTTPRDRWVEKGSEDVRLMKPPSPEHQSLDTQQEGGEEEVGPVAQQAIAVAEPSTSECLRIEPDTTALSTNHETIDLLVQILRNCLRYFLPPSFPISKKQLSAMNSDELISFPLKEYFKQYEVGLQNLCNSYQSRADSRAKASEESLRTSERKLRETEEKLQKLRTNIVALLQKVQEDIDINTDDELDAYIEDLITKGD

These are yes or no findings as the source states them, for the method shown. Binding seen in cells or lysates may run through a third protein. A yes stands for co-enrichment or nearness to the bait. Other partners may have been found.
